Measurements reported in PubChem BioAssay AID1259424 (University of Nebraska Medical Center, 2018)

- Purpose: 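Rank knockdowns across the genome by resemblance to the KSR1 depletion profile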 (primary screen)
- Cell system: human HCT116 colon cancer cells
- Reagents: siRNA pool against human genes, 50 nM
- Detection: 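Six signature mRNAs by branched-DNA multiplex assay, scaled to two housekeeping genes and non-targeting median, log2; matched to mean KSR1 knockdown profile by Pearson correlation and euclidean distance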
- Reading the numbers: mean correlation with KSR1 profile: higher = expression change more like KSR1 knockdown; mean distance from KSR1 profile: higher = expression change less like KSR1 knockdown
This is a random part of about 14,000 reagents. 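Higher correlation or smaller distance means closer resemblance to KSR1 loss; control wells, including KSR1 knockdowns, recur on many plates.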 Not all columns of the deposit are shown. Reagent sequences are not shown. Not stated in the record: the time to read-out.

{"target": "ID4 (inhibitor of DNA binding 4)", "mean correlation with KSR1 profile": 0.226, "mean distance from KSR1 profile": 1.61}
{"target": "ACSL4 (acyl-CoA synthetase long chain family member 4)", "mean correlation with KSR1 profile": -0.164, "mean distance from KSR1 profile": 1.53}
{"target": "ABCC12 (ATP binding cassette subfamily C member 12)", "mean correlation with KSR1 profile": 0.151, "mean distance from KSR1 profile": 1.38}
{"target": "SLC17A3", "mean correlation with KSR1 profile": -0.421, "mean distance from KSR1 profile": 2.14}
{"target": "TJP3 (tight junction protein 3)", "mean correlation with KSR1 profile": 0.413, "mean distance from KSR1 profile": 1.08}
{"target": "CIPC (CLOCK interacting pacemaker)", "mean correlation with KSR1 profile": -0.29, "mean distance from KSR1 profile": 3.99}
{"target": "ZNF329 (zinc finger protein 329)", "mean correlation with KSR1 profile": 0.635, "mean distance from KSR1 profile": 1.21}
{"target": "TMEM230 (transmembrane protein 230)", "mean correlation with KSR1 profile": -0.245, "mean distance from KSR1 profile": 2.3}
{"target": "ANXA7 (annexin A7)", "mean correlation with KSR1 profile": -0.309, "mean distance from KSR1 profile": 1.88}
{"target": "ERN2 (endoplasmic reticulum to nucleus signaling 2)", "mean correlation with KSR1 profile": -0.169, "mean distance from KSR1 profile": 1.55}
{"target": "DCAF12 (DDB1 and CUL4 associated factor 12)", "mean correlation with KSR1 profile": -0.229, "mean distance from KSR1 profile": 1.88}
{"target": "CYP17A1 (cytochrome P450 family 17 subfamily A member 1)", "mean correlation with KSR1 profile": 0.00948, "mean distance from KSR1 profile": 1.88}
{"target": "OR2C3 (olfactory receptor family 2 subfamily C member 3)", "mean correlation with KSR1 profile": 0.423, "mean distance from KSR1 profile": 1.94}
{"target": "RUVBL2 (RuvB like AAA ATPase 2)", "mean correlation with KSR1 profile": -0.32, "mean distance from KSR1 profile": 2.9}
{"target": "CSNK2B (casein kinase 2 beta)", "mean correlation with KSR1 profile": -0.199, "mean distance from KSR1 profile": 1.67}
{"target": "DNMT3L (DNA methyltransferase 3 like)", "mean correlation with KSR1 profile": 0.351, "mean distance from KSR1 profile": 0.914}
{"target": "CFH (complement factor H)", "mean correlation with KSR1 profile": -0.641, "mean distance from KSR1 profile": 3.02}
{"target": "GMCL1 (germ cell-less 1, spermatogenesis associated)", "mean correlation with KSR1 profile": 0.0633, "mean distance from KSR1 profile": 2.17}
{"target": "CETN1 (centrin 1)", "mean correlation with KSR1 profile": 0.0878, "mean distance from KSR1 profile": 2.37}

Look-ups from the list:
For “mean correlation with KSR1 profile”, CYP17A1 (cytochrome P450 family 17 subfamily A member 1) shows 0.00948
TMEM230 (transmembrane protein 230), mean correlation with KSR1 profile: -0.245
